In PubChem BioAssay AID2662 (National Center for Advancing Translational Sciences (NCATS), 2010):
Out of some 290,000 compounds screened, about 110 (0.038%) were called active. This list was built around the results that the source calls inconclusive (neither active nor inactive); the mix of calls is not that of the screen. The call rests on the fitted dose curve; in most records, active means well fitted inhibition curve with a large enough effect in the polarisation, with a control signal flat (not every such curve was filed as active); inconclusive means small, poorly fitted or top-dose-only effect, or effect the other way, or a change in a side signal; inactive means no such curve, though single readings can be large or run the other way; the % refers to the polarisation. A potency beside an inconclusive call is a rough fit, not a confirmed value. A note “side channel” means that the fit belongs to a control or component signal, not to the main read-out.

Protein sequences, listed by entry. Tags and fused reporters are not part of them.
UniProt Q03164, whole entry, looked up: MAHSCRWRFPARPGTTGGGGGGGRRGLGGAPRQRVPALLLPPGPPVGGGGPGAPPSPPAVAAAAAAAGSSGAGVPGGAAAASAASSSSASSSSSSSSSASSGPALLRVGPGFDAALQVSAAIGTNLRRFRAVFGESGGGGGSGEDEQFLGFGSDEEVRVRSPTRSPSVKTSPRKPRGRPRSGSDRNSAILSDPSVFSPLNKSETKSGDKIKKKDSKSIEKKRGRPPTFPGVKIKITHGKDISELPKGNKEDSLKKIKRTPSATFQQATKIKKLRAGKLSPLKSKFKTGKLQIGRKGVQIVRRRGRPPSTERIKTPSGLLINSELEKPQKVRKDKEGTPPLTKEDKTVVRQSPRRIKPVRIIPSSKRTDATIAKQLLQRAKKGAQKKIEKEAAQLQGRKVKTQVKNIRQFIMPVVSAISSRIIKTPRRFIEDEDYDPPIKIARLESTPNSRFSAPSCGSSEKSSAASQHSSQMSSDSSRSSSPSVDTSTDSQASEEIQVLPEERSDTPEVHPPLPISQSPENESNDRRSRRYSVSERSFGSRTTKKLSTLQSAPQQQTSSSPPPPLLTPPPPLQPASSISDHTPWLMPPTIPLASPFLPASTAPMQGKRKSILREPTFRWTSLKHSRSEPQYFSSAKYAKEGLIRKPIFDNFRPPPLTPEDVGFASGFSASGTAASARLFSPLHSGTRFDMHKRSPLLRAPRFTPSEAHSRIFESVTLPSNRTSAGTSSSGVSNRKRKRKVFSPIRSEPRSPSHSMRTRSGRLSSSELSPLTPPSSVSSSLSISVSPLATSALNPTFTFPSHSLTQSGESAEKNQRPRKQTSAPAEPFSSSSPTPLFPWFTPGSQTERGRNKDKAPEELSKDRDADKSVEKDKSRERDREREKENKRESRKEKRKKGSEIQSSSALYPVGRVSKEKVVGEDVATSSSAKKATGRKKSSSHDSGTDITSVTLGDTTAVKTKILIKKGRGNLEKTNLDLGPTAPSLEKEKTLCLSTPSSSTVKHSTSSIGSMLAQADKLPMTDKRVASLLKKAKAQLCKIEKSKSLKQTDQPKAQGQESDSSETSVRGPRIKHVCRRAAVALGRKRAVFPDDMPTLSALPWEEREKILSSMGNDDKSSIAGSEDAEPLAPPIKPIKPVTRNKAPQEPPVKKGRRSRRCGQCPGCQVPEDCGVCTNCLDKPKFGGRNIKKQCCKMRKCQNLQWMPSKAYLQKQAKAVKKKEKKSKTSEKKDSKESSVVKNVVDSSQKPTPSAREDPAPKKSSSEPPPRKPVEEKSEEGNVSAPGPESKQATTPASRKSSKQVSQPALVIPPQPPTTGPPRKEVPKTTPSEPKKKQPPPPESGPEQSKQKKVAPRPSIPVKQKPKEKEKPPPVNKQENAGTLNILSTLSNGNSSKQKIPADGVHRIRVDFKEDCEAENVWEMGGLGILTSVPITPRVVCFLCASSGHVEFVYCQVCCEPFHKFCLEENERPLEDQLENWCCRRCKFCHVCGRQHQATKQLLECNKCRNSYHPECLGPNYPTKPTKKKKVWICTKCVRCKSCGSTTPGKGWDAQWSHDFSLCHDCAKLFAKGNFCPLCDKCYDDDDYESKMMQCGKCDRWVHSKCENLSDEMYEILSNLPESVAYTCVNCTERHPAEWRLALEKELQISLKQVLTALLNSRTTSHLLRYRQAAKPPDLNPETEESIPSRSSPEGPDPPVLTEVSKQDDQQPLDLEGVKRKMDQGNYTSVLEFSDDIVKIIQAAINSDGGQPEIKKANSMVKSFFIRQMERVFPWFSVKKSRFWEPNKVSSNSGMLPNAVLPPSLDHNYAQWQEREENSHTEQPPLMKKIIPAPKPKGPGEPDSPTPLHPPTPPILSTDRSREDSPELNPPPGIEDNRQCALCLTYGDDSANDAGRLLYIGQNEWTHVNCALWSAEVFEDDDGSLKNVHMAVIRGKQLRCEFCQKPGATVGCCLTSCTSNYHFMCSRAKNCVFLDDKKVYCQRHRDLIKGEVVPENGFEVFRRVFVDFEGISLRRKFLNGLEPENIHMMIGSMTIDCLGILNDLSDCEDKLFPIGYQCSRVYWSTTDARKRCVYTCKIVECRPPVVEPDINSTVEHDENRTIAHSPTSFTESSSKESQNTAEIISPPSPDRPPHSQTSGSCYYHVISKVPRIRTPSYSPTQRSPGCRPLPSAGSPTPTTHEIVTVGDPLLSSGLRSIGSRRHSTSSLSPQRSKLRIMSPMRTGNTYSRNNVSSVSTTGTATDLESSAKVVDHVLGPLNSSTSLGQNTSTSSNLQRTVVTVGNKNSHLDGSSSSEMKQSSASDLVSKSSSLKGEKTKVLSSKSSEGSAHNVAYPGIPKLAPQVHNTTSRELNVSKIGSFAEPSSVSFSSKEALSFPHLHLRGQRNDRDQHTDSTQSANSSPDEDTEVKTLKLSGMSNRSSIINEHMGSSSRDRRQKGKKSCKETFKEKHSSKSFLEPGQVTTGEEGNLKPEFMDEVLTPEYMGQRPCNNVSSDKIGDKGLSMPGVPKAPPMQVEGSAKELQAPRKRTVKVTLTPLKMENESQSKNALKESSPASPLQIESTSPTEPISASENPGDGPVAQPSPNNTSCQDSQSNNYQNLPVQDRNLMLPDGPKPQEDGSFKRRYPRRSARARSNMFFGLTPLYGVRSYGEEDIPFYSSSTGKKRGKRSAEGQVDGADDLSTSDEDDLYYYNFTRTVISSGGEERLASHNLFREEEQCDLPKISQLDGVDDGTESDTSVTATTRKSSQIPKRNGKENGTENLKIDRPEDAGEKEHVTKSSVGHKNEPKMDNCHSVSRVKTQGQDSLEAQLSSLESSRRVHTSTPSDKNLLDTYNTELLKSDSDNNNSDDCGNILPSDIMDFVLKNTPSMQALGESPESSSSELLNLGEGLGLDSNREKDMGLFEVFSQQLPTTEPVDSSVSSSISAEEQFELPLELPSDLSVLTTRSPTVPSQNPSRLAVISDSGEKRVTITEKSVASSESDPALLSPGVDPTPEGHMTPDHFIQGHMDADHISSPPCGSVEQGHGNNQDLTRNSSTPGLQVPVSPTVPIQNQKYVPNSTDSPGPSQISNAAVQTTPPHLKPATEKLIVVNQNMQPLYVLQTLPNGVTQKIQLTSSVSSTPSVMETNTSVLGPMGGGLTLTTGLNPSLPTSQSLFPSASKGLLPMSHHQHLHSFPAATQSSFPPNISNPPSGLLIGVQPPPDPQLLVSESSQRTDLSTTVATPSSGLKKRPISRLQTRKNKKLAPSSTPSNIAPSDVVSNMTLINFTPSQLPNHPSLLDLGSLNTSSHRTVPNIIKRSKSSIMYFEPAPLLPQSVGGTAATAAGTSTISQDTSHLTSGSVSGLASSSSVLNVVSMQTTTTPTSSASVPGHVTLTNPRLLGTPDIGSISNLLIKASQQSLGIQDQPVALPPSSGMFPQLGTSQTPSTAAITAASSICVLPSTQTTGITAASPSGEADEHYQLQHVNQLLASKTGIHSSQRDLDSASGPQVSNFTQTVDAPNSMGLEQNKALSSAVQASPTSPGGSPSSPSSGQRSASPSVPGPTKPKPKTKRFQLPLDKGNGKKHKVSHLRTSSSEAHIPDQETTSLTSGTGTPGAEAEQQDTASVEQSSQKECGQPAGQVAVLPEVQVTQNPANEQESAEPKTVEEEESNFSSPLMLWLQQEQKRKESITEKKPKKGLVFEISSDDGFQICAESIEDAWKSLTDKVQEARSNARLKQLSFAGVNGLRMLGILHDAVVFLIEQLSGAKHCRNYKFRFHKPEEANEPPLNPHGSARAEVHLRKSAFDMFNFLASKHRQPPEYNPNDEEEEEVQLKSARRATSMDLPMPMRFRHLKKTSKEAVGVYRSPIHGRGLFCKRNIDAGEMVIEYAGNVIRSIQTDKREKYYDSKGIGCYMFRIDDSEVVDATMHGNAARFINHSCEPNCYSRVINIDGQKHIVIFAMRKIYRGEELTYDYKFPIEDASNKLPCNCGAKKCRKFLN

Molecular target: Histone-lysine N-methyltransferase 2A (Homo sapiens) (UniProt Q03164)
Assay: qHTS Fluorescence Polarization Assay for Inhibitors of MLL CXXC domain - DNA interaction
Details: MLL-CXXC / FITC-HOXA9 DNA fluorescence polarization; activity change, negative = inhibition: at 115 µM (top of the series)
Procedure, shortened: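 Fluorescence polarization: 7 uM MLL-CXXC (stock) preincubated 5 min with compounds, then 50 nM fluorescein-HOX-A9 DNA (stock) added; 30 min ambient. Buffer 50 mM Tris-HCl pH 7.5, 50 mM NaCl, 1 mM DTT, 0.05% BSA.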
Potency means the concentration at half of the fitted maximal effect.

Row | SMILES | Potency | activity change, negative = inhibition
1 | CN(C)c1ccc(/C=C/c2ccncc2)cc1 | inconclusive: 39.8 µM [fluorescent, side channel, partial curve] | 
2 | COc1ccc(C)cc1S(=O)(=O)Nc1ccc(F)c(Cl)c1 |  | inactive: 3.87%
3 | CC(C)CCNC(=O)c1cnn2c(C(F)(F)F)cc(-c3ccco3)nc12 |  | inactive: -8.15%
4 | CC(C)CC(NC(N)=O)C(=O)OCC(=O)Nc1ccc(SC(F)F)cc1 (stereo not drawn) | inconclusive: 11.2 µM [fluorescent, side channel, full curve, poor fit] | 
5 | N#CC(C(=O)NC1CC1)c1nc2ccccc2nc1N1CCN(C/C=C/c2ccccc2)CC1 (stereo not drawn) |  | inactive: 11.5%
6 | Cc1ccc(/C=C(\C#N)C(=O)NCCN2CCOCC2)cc1 | inconclusive: 3.16 µM [fluorescent, side channel, full curve] | 
7 | COc1ccc(OC(C)C(=O)Nc2ccc(F)cc2F)cc1 (stereo not drawn) |  | inactive: 15.7%
8 | CCOc1cc(/C=C2\SC(=O)N(c3ccc(O)cc3)C2=O)ccc1O | inconclusive: 63.1 µM [fluorescent, side channel, single point] | 
9 | COc1ccc(CCNc2cc(C)nc3c(-c4ccccc4OC)cnn23)cc1OC | inconclusive: 89.1 µM [fluorescent, side channel, single point] | 
10 | C/C=C/c1ccc(OCC(=O)OCC(=O)NC2CC2)c(OC)c1 |  | inactive: -2.05%
11 | Clc1ccc(C2=Nc3cc(Cl)ccc3OC2)cc1 | inconclusive: 70.8 µM [fluorescent, side channel, single point] | 
12 | O=C(/C=C/c1ccc(NC(=O)c2ccccc2-c2ccccc2C(=O)O)cc1)c1ccccc1 | inconclusive: 10 µM [inhibitor, full curve, poor fit] | 
13 | COc1ccc(-c2csc(-n3ncc(C(=O)O)c3C(F)(F)F)n2)cc1 |  | inactive: -6.75%
14 | N#Cc1ccc(NC(=O)CN2C(=O)NC(Cc3ccccc3)C2=O)cc1 (stereo not drawn) | inconclusive: 2.24 µM [fluorescent, side channel, full curve] | 
15 | COc1ccc(CC(=O)N/N=C/c2ccc(Cl)s2)cc1OC | inconclusive: 63.1 µM [fluorescent, side channel, single point] | 
16 | CN1CCCc2cc3c(C(F)(F)F)cc(=O)oc3nc21 | active: 28.2 µM | 
17 | Cc1cc(C)cc(Oc2nc3ccccn3c(=O)c2/C=C(\C#N)C(=O)NC2CCS(=O)(=O)C2)c1 (stereo not drawn) | inconclusive: 20 µM [inhibitor, full curve, poor fit] | 
18 | COc1ccc(-c2nc(CN3CCN(C(=O)c4ccco4)CC3)c(C)o2)c(OC)c1C | inconclusive: 14.1 µM [quencher, single point] | 
19 | O=C(CSc1nnc(-c2ccccc2)c2ccccc12)NCC1CCCO1 (stereo not drawn) | inconclusive: 31.6 µM [fluorescent, side channel, single point] | 
20 | Cc1ccc2nc(Cl)c3cc(C(=O)NCCCN4CCCC4)sc3c2c1 | inconclusive: 35.5 µM [inhibitor, single point] | 
21 | CCOc1ccc(NC(=O)CN2CCN(CC(=O)Nc3ccc(F)cc3)CC2)cc1 |  | inactive: 4.51%

Row | SMILES | Potency | activity change, negative = inhibition
22 | CN(C)c1ccc(NC(=O)c2ccc3nc[nH]c3c2)cc1 | inconclusive: 1.26 µM [fluorescent, side channel, partial curve, poor fit] | 
23 | O=C(/C=C/c1ccc(F)cc1)Nc1ccc(S(=O)(=O)N2CCOCC2)cc1 | inconclusive: 89.1 µM [quencher, side channel, single point] | 
24 | COc1cccc(C(=O)NCC2CCCN(C(=O)c3ccc(C=O)cc3)C2)c1OC (stereo not drawn) | inconclusive: 15.8 µM [quencher, side channel, single point] | 
25 | Cc1cc(C)n(CC(O)COCc2ccccc2)n1 (stereo not drawn) |  | inactive: -4.32%
26 | O=C1CNC(=O)/C1=C/c1ccc(Br)cc1 | inconclusive: 31.6 µM [inhibitor, partial curve] | 
27 | Fc1ccc(-c2cnc(-c3cccs3)o2)cc1 |  | inactive: -2.61%
28 | CCCCC1=CC2=CC(=O)C(C)(OC(=O)CC)C(=O)C2=CN1Cc1ccc(OC)cc1 (stereo not drawn) | inconclusive: 70.8 µM [fluorescent, side channel, single point] | 
29 | CC(C)Cn1c(N)c(C(=O)COC(=O)CN2C(=O)C3CC=CCC3C2=O)c(=O)n(C)c1=O (stereo not drawn) | inconclusive: 1.12 µM [fluorescent, side channel, full curve, poor fit] | 
30 | O=C(CCc1nnc(CCCc2ccccc2)o1)NCCc1ccccc1 |  | inactive: -10.2%
31 | COc1ccc(CCNC(=O)CC2Nc3ccccc3NC2=O)cc1OC (stereo not drawn) | inconclusive: 17.8 µM [fluorescent, side channel, partial curve] | 
32 | COc1ccc(NC(=O)c2ccc(-c3ccc(-c4noc(C)n4)cc3C)cc2)cc1N1CCN(C)CC1 | inconclusive: 28.2 µM [quencher, side channel, partial curve] | 
33 | COc1ccc(Cn2nnnc2C(c2cc3cccc(C)c3[nH]c2=O)N2CCOCC2)cc1 (stereo not drawn) |  | inactive: -19.9%
34 | O=c1[nH]c2ccccc2nc1/C=C/c1ccc(F)cc1 | inconclusive: 31.6 µM [fluorescent, side channel, single point] | 
35 | COC(=O)c1sccc1NC(=O)Cc1ccc(Br)cc1 | inconclusive: 1.58 µM [fluorescent, side channel, full curve] | 
36 | N#Cc1cccc(NC(=O)Cn2c3[n+](c4ccc(C(F)(F)F)cc42)CCCCC3)c1 |  | inactive: -0.475%
37 | COc1ccccc1NC(=O)Nc1ccnn1C1CCN(C(=O)c2ccccn2)CC1 |  | inactive: 1.16%
38 | COC(=O)CN1C(c2ccccc2O)Nc2ccc(Br)cc2C1c1ccccc1 (stereo not drawn) |  | inconclusive: -10.6% [phenotype inactive]
39 | CCOC(=O)N1CCC(N(CCN(C)C)C(=S)Nc2ccccc2C)CC1 | inconclusive: 11.2 µM [quencher, side channel, partial curve] | 
40 | O=c1c2ccccc2nc(SCc2nnc(-c3ccccc3)o2)n1-c1ccc(F)cc1F |  | inactive: -1.52%
41 | CCC(Oc1ccccc1)C(=O)Nc1ccccc1N1CCCC1 (stereo not drawn) | inconclusive: 79.4 µM [fluorescent, side channel, single point] | 
42 | O=C(NC1CCCC1)c1ccc(Br)c(S(=O)(=O)N2CCCCC2)c1 | inconclusive: 8.91 µM [quencher, side channel, single point] | 

Row | SMILES | Potency | activity change, negative = inhibition
43 | NC(=O)c1c(-c2cccs2)csc1N |  | inactive: 0.589%
44 | CCOC(=O)N1CCN(C(=O)c2cn(CC)c3ccc(S(=O)(=O)N4CCC(C)CC4)cc3c2=O)CC1 | inconclusive: 1 µM [fluorescent, side channel, full curve, poor fit] | 
45 | Cn1nc(/C=C/c2ccccc2)ccc1=O |  | inactive: 2.49%
46 | O=C(CN1C(=O)c2cccc3cccc1c23)N1CCN(c2cccc(Cl)c2)CC1 | inconclusive: 39.8 µM [fluorescent, side channel, single point] | 
47 | O=C(NNC(=O)c1cc2cc3ccccc3nc2s1)c1ccc(F)cc1 |  | inactive: 30.4%
48 | COC(=O)c1cc(OC)c(OC)cc1NC(=O)Cc1cccs1 | inconclusive: 31.6 µM [inhibitor, single point] | 
49 | COc1ccc(C(CCN2CCCCC2)c2c(OC)cc(OC)c3c(-c4ccccc4)cc(=O)oc23)cc1 (stereo not drawn) | inconclusive: 35.5 µM [quencher, side channel, partial curve] | 
50 | O=C(Nc1ccnn1C1CCN(Cc2ccc(CO)o2)CC1)c1ccccc1 | inconclusive: 35.5 µM [fluorescent, side channel, single point] | 
51 | Cc1cc(N2CCN(c3ccccc3F)CC2)nc2cc(O)ccc12 | inconclusive: 70.8 µM [quencher, side channel, single point] | 
52 | Cc1cc(OCc2nnc(SCC(=O)O)n2-c2ccccc2)ccc1Cl | inconclusive: 39.8 µM [inhibitor, partial curve] | 
53 | OCC[n+]1ccc(/C=C/c2c[nH]c3ccccc23)cc1 | inconclusive: 31.6 µM [fluorescent, side channel, single point] | 
54 | COc1ccccc1NC(=O)/C(C#N)=C/c1cccnc1 | inconclusive: 14.1 µM [quencher, side channel, single point] | 
55 | COc1cccc(NC(=O)C(Sc2nc3ccccc3c(=O)n2CC(C)C)c2ccccc2)c1 (stereo not drawn) | inconclusive: 12.6 µM [fluorescent, side channel, full curve] | 
56 | O=C(NCc1ccco1)C(c1ccccc1)N(C(=O)Cc1cccs1)c1ccccc1F (stereo not drawn) |  | inactive: -6.19%
57 | C[n+]1ccc(/C=C/c2c[nH]c3ccccc23)cc1 | inconclusive: 28.2 µM [fluorescent, side channel, partial curve] | 
58 | CC(=O)n1cc([C@@H]2C=C(C(=O)N3CCN(Cc4ccc5c(c4)OCO5)CC3)O[C@H](OCc3ccc(CO)cc3)C2)c2ccccc21 | inconclusive: 89.1 µM [inhibitor, single point] | 
59 | COc1ccc(OCC(=O)Nc2ccc3c(c2)nc(CCN2CCC(C)CC2)n3C)cc1 |  | inactive: -2.87%
61 | CC(=O)c1ccc(NC(=O)CCCN2C(=O)/C(=C/C(C)=C/c3ccccc3)SC2=S)cc1 |  | inactive: 26.5%
62 | Cc1ncc(CN2CCC(C(=O)Nc3ccc(-n4cccn4)cc3)CC2)s1 | inconclusive: 14.1 µM [fluorescent, side channel, single point] | 
63 | COc1ccc(/C=N/NC(=O)CNC(=O)/C=C/c2ccco2)cc1OC | inconclusive: 8.91 µM [fluorescent, side channel, single point] | 

A few values from the entries so far.
Potency, `Cc1ccc(/C=C(\C#N)C(=O)NCCN2CCOCC2)cc1` reads inconclusive: 3.16 µM [fluorescent, side channel, full curve]
activity change, negative = inhibition, `Cn1nc(/C=C/c2ccccc2)ccc1=O` reads inactive: 2.49%
Potency, `CCC(Oc1ccccc1)C(=O)Nc1ccccc1N1CCCC1` (stereo not drawn) reads inconclusive: 79.4 µM [fluorescent, side channel, single point]
